Assay results published in PubChem BioAssay AID212 (DTP/NCI, 2004).
The list is a part of this screen's results and no random one: it gathers some chemical classes. Other doses and runs of a compound may be missing. T/C gives the treated animals as a percentage of the vehicle group. Schedules are NCI's codes, taken here to give the interval after Q, in days (D) or hours (H), and the number of doses after X. Some T/C values are followed by the survivors on the day toxicity was checked; where neither a count nor a note follows, no animal had died by that day. Some doses have a count of surviving animals in place of a T/C: the source files T/C as zero there, which appears to mark a toxic dose or a test without result, not a measured value. Counts of survivors are from the toxicity check, whose day is not always given; animals may have died later.

Test system: BDF1 mice, colon carcinoma 38 sc, T/C %
Assay: NCI In Vivo Anticancer Drug Screen. Data for tumor model Colon Carcinoma 38 (subcutaneous) in B6D2F1 (BDF1) mice
Details: T/C endpoint: median tumor weight (est.), schedule: Q07DX002 (ip), vehicle: Klucel (hydroxypropylcellulose) (HPC), higher T/C = larger tumour; for T/C: evaluated on day 20
Experimental: The antitumor activity of compounds was measured in mice bearing transplantable tumors. Survival or tumor size were measured and the results are expressed as the measurement made in the treated group (T) divided by the measurement made in the vehicle treated control group (C). The tumor model used in this assay is Colon Carcinoma 38 (subcutaneous) in B6D2F1 (BDF1) mice

ICCN(CCI)c1cccc2ccccc12
T/C (dose: 6.25 mg/kg/injection): 56 % of control | T/C (dose: 12.5 mg/kg/injection): 43 % of control [9 of 10 alive on day 20] | survivor count (dose: 25.0 mg/kg/injection): 6 of 10 on day 20 | survivor count (dose: 50.0 mg/kg/injection): 3 of 10 on day 20 | survivor count (dose: 100.0 mg/kg/injection): 0 of 10 on day 20 | survivor count (dose: 200.0 mg/kg/injection): 0 of 10 on day 20

NC(=O)Nc1ccc(N(CCCl)CCCl)cc1
T/C (dose: 10.0 mg/kg/injection): 65 % of control [9 of 10 alive on day 20] | T/C (dose: 12.5 mg/kg/injection): 155 % of control | T/C (dose: 20.0 mg/kg/injection): 56 % of control | T/C (dose: 25.0 mg/kg/injection): 110 % of control | T/C (dose: 40.0 mg/kg/injection): 55 % of control | T/C (dose: 50.0 mg/kg/injection): 104 % of control | T/C (dose: 80.0 mg/kg/injection): 41 % of control [9 of 10 alive on day 20] | survivor count (dose: 160.0 mg/kg/injection): 0 of 10 on day 20

CCCCc1ccc(N(CCCl)CCCl)cc1
T/C (dose: 50.0 mg/kg/injection): 95 % of control [9 of 10 alive on day 20] | T/C (dose: 100.0 mg/kg/injection): 60 % of control | T/C (dose: 200.0 mg/kg/injection): 60 % of control | T/C (dose: 400.0 mg/kg/injection): 44 % of control [9 of 10 alive on day 20] | survivor count (dose: 800.0 mg/kg/injection): 0 of 10 on day 20
